Literature values as cited in US11969428B2, “Methods and pharmaceutical compositions for treating lymphoid malignancy” (priority 2011, dated 2024).
At least one structure is not confirmed: it was looked up by name or label, or the drawing left a doubt.

System: circulating chemokines
Details: chronic lymphocytic leukemia; cited from earlier work

CC[C@H](Nc1ncnc2[nH]cnc12)c1nc2cccc(F)c2c(=O)n1-c1ccccc1 [CAL-101]
levels of circulating chemokines: reduces
